Reference: PubChem BioAssay AID316 (DTP/NCI, 2004)
The list is a part of this screen's results and no random one: it is rich in T/C values a quarter to a half above the control, in often repeated tests (any T/C) and in doses without a T/C. Other doses and runs of a compound stand elsewhere. T/C gives the treated animals as a percentage of the vehicle group. Some doses have a count of surviving animals in place of a T/C: the source files T/C as zero there, which appears to mark a toxic dose or a test without result, not a measured value. Some doses without a T/C left all or most animals alive at the check, yet need not have been tolerated: the source hardly ever lists a survival T/C far under the control, and the zero likely stands for such cases as well. Survivors were counted at the toxicity check, usually on the fifth day, unless a day is given; later deaths do not show. Schedule codes are those of the source, taken here to give the interval after Q, in days (D) or hours (H), and the number of doses after X. Some schedule codes hold Z or #, which are not explained here. Some doses were run more than once; their values stand side by side, smallest first. Where survival is the endpoint, this PubChem deposit counts one and a half times the control or more as active, and values a quarter to a half above the control carry no call in these data; other NCI protocols may use other cut-offs. Some T/C values carry the count of animals alive at the toxicity check (mostly the fifth day); without a count, all were alive then.

Tested on: P1534 leukemia ip, CD2F1 mice, survival T/C
Assay: NCI In Vivo Anticancer Drug Screen. Data for tumor model P1534 Leukemia (intraperitoneal) in CD2F1 (CDF1) mice
Details: T/C endpoint: mean survival time, higher T/C = longer survival
Procedure: The antitumor activity of compounds was measured in mice bearing transplantable tumors. Survival or tumor size were measured and the results are expressed as the measurement made in the treated group (T) divided by the measurement made in the vehicle treated control group (C). The tumor model used in this assay is P1534 Leukemia (intraperitoneal) in CD2F1 (CDF1) mice

[1] = dose: 125.0 mg/kg/injection, schedule: Q01DX010 (ip), vehicle: saline
[2] = dose: 150.0 mg/kg/injection, schedule: Q01DX005 (sc), vehicle: steroid suspending solution
[3] = dose: 300.0 mg/kg/injection, schedule: Q01DX005 (sc), vehicle: steroid suspending solution
[4] = dose: 62.5 mg/kg/injection, schedule: Q01DX010 (ip), vehicle: saline
[5] = dose: 250.0 mg/kg/injection, schedule: Q01DX010 (ip), vehicle: saline
[6] = dose: 112.0 mg/kg/injection, schedule: Q07DX Z (ip), vehicle: saline

NCCc1ccccc1
survivor count [1]: 4 of 6

C[C@]12C=CC(=O)C=C1CC[C@@H]1[C@@H]2C(=O)C[C@@]2(C)[C@H]1CC[C@]2(O)C(=O)CO
survivor count (dose: 25.0 mg/kg/injection, schedule: Q01DX010 (sc), vehicle: steroid suspending solution): 6 of 6
T/C [2]: 90, 94, 100, 113 % of control [8 of 10 alive]
survivor count [2]: 6 of 10
survivor count (dose: 200.0 mg/kg/injection, schedule: Q01DX005 (sc), vehicle: steroid suspending solution): 10 of 10
survivor count (dose: 250.0 mg/kg/injection, schedule: Q01DX005 (sc), vehicle: steroid suspending solution): 10 of 10
T/C [3]: 93 [9 of 10 alive] and 94 % of control
survivor count [3]: 0 of 10, 3 of 10, 6 of 10, 10 of 10

CO[C@@H]1[C@@H](OC2OC(C)C(OC3CC(C)(O)C(OC(=O)CC(C)C)C(C)O3)C(N(C)C)C2O)[C@@H](CC=O)C[C@@H](C)C(=O)/C=C/C2O[C@H]2C[C@@H](C)OC(=O)C[C@H]1OC(C)=O (stereo partly specified)
T/C (dose: 150.0 mg/kg/injection, schedule: Q#A X020 (ip), vehicle: water): 130 % of control [4 of 6 alive]
T/C (dose: 300.0 mg/kg/injection, schedule: Q01DX010 (ip), vehicle: water): 143 % of control [5 of 6 alive]
T/C (dose: 350.0 mg/kg/injection, schedule: Q01DX010 (ip), vehicle: water): 125 % of control
survivor count (dose: 400.0 mg/kg/injection, schedule: Q01DX010 (ip), vehicle: water): 1 of 6
survivor count (dose: 600.0 mg/kg/injection, schedule: Q01DX010 (ip), vehicle: water): 0 of 6
survivor count (dose: 1500.0 mg/kg/injection, schedule: Q01DX010 (oral), vehicle: water): 1 of 6

C(CC1CCNCC1)CC1CCNCC1
survivor count (dose: 6.25 mg/kg/injection, schedule: Q01DX010 (ip), vehicle: saline): 6 of 6
survivor count (dose: 12.5 mg/kg/injection, schedule: Q01DX010 (ip), vehicle: saline): 6 of 6
survivor count (dose: 25.0 mg/kg/injection, schedule: Q01DX010 (ip), vehicle: saline): 6 of 6
survivor count (dose: 50.0 mg/kg/injection, schedule: Q01DX010 (ip), vehicle: saline): 0 of 6

CC(=O)OC(C)(C)/C=C/C(=O)[C@](C)(O)[C@H]1[C@H](O)C[C@@]2(C)[C@@H]3CC=C4[C@@H](C[C@H](O)C(=O)C4(C)C)[C@]3(CO)C(=O)C[C@]12C
survivor count (dose: 0.38 mg/kg/injection, schedule: Q01DX010 (ip), vehicle: saline): 2 of 6

COC(=O)C1=COC(C)C2CN3CCc4c([nH]c5cc(OC)c(OC)cc45)C3CC12 (stereo unspecified)
survivor count (dose: 300.0 mg/kg/injection, schedule: Q01DX010 (ip), vehicle: saline): 6 of 6

CCn1cnc2c(=S)nc[nH]c21
survivor count [4]: 6 of 6
survivor count [1]: 6 of 6
survivor count [5]: 6 of 6

CN(C)c1ccc(/C=C\c2ccnc3ccccc23)cc1
survivor count (dose: 27.0 mg/kg/injection, schedule: Q01DX010 (ip), vehicle: saline): 6 of 6
survivor count (dose: 40.0 mg/kg/injection, schedule: Q01DX010 (ip), vehicle: saline): 6 of 6

COc1ccc2cc3[n+](cc2c1O)CCc1cc2c(cc1-3)OCO2
T/C (dose: 100.0 mg/kg/injection, schedule: Q01DX010 (ip), vehicle: saline): 142 % of control

NC(=O)c1ccc(N)nc1
T/C (dose: 0.5 mg/kg/injection, schedule: Q#A X020 (ip), vehicle: saline): 138 % of control [5 of 6 alive]
T/C (dose: 0.75 mg/kg/injection, schedule: Q01DX010 (ip), vehicle: saline): 125 % of control [4 of 6 alive]
T/C (dose: 1.0 mg/kg/injection, schedule: Q#A X020 (ip), vehicle: saline): 142 % of control
T/C (dose: 1.5 mg/kg/injection, schedule: Q01DX010 (ip), vehicle: saline): 136 and 137 % of control
T/C (dose: 3.0 mg/kg/injection, schedule: Q01DX010 (ip), vehicle: saline): 140 % of control
T/C (dose: 3.0 mg/kg/injection, schedule: Q01DX010 (sc), vehicle: saline): 128 % of control
T/C (dose: 3.0 mg/kg/injection, schedule: Q03DX Z (ip), vehicle: saline): 126 % of control
T/C (dose: 6.0 mg/kg/injection, schedule: Q01DX006 (iv), vehicle: saline): 128 % of control
survivor count (dose: 6.0 mg/kg/injection, schedule: Q01DX010 (oral), vehicle: saline): 6 of 6
survivor count (dose: 6.0 mg/kg/injection, schedule: Q01DX010 (sc), vehicle: saline): 7 of 7
T/C (dose: 6.0 mg/kg/injection, schedule: Q03DX Z (ip), vehicle: saline): 130 % of control
T/C (dose: 7.0 mg/kg/injection, schedule: Q07DX Z (ip), vehicle: saline): 126 % of control
survivor count (dose: 12.0 mg/kg/injection, schedule: Q01DX006 (iv), vehicle: saline): 7 of 7
survivor count (dose: 12.0 mg/kg/injection, schedule: Q01DX010 (im), vehicle: saline): 7 of 7
survivor count (dose: 12.0 mg/kg/injection, schedule: Q01DX010 (oral), vehicle: saline): 5 of 6
survivor count (dose: 12.0 mg/kg/injection, schedule: Q01DX010 (sc), vehicle: saline): 7 of 7
T/C (dose: 14.0 mg/kg/injection, schedule: Q01DX001 (ip), vehicle: saline): 126 % of control
T/C (dose: 28.0 mg/kg/injection, schedule: Q01DX001 (ip), vehicle: saline): 125 and 126 % of control
T/C (dose: 28.0 mg/kg/injection, schedule: Q07DX Z (ip), vehicle: saline): 125 and 142 % of control
T/C (dose: 56.0 mg/kg/injection, schedule: Q01DX001 (ip), vehicle: saline): 132 % of control [4 of 6 alive]
survivor count (dose: 56.0 mg/kg/injection, schedule: Q07DX Z (ip), vehicle: saline): 6 of 6
T/C [6]: 146 % of control [5 of 6 alive]
survivor count [6]: 7 of 7
survivor count (dose: 224.0 mg/kg/injection, schedule: Q07DX Z (ip), vehicle: saline): 3 of 7

COc1cc2c(c(OC)c1OC)-c1ccc(OC)c(=O)cc1[C@@H](NC(C)=O)CC2
T/C (dose: 0.08 mg/kg/injection, schedule: Q01DX010 (ip), vehicle: saline, evaluated on day 46): 140 % of control
T/C (dose: 0.08 mg/kg/injection, schedule: Q01DX010 (ip), vehicle: saline, run until all animals had died): 142 % of control
T/C (dose: 0.09 mg/kg/injection, schedule: Q01DX015 (ip), vehicle: saline): 133 % of control
T/C (dose: 0.12 mg/kg/injection, schedule: Q01DX010 (ip), vehicle: saline): 139 % of control
T/C (dose: 0.13 mg/kg/injection, schedule: Q01DX015 (ip), vehicle: saline): 138 % of control
survivor count (dose: 2.0 mg/kg/injection, schedule: Q## X004 (ip), vehicle: saline): 5 of 10
survivor count (dose: 3.0 mg/kg/injection, schedule: Q## X004 (ip), vehicle: saline): 3 of 10
survivor count (dose: 3.6 mg/kg/injection, schedule: Q## X032 (ip), vehicle: saline): 0 of 10
survivor count (dose: 3.7 mg/kg/injection, schedule: Q01DX001 (ip), vehicle: saline): 5 of 9
survivor count (dose: 4.5 mg/kg/injection, schedule: Q## X004 (ip), vehicle: saline): 1 of 10
survivor count (dose: 5.4 mg/kg/injection, schedule: Q## X032 (ip), vehicle: saline): 0 of 10
survivor count (dose: 5.6 mg/kg/injection, schedule: Q01DX001 (ip), vehicle: saline): 2 of 10

O=C(Nc1ccc(C2=NCCCN2)cc1)c1ccc(C(=O)Nc2ccc(C3=NCCCN3)cc2)cc1
T/C (dose: 4.0 mg/kg/injection, schedule: Q01DX010 (ip), vehicle: saline): 131 and 136 % of control
T/C (dose: 8.0 mg/kg/injection, schedule: Q01DX010 (ip), vehicle: saline): 127 % of control

c1ccc(CCSc2ncnc3nc[nH]c23)cc1
survivor count [4]: 6 of 6
survivor count [5]: 6 of 6

COc1cc2c3c(c4cc(OC)c(OC)cc4c2cc1OC)CN1CCC[C@H]1C3
survivor count (dose: 15.6 mg/kg/injection, schedule: Q01DX010 (ip), vehicle: saline): 6 of 6
survivor count (dose: 31.3 mg/kg/injection, schedule: Q01DX010 (ip), vehicle: saline): 6 of 6
survivor count [4]: 6 of 6
survivor count [1]: 6 of 6
survivor count [5]: 6 of 6
